Source: PubChem BioAssay AID1224826 (NIAID, 2016)

Assay: 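Genes that change LPS-induced Tnf promoter activity in mouse macrophages when knocked down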 (primary screen)
Cell system: RAW264.7 G9 macrophages from mouse bearing reporters for p65 (GFP) and the Tnf promoter (mCherry)
Knock-down reagent: siRNA pool against mouse genes, 100 nM
Duration: 16 h of LPS stimulation, after 2 days of siRNA transfection
Treatment: bacterial lipopolysaccharide (Salmonella minnesota R595), 10 ng/ml
Read-out: 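Nuclear mCherry signal of the Tnf promoter reporter measured by imaging after background removal, scaled to each plate median and turned into robust z-scores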
Reading the numbers: Tnf reporter robust z-score: higher = stronger Tnf promoter reporter signal after LPS; Tnf reporter intensity: higher = stronger Tnf promoter reporter signal
Active means: 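Called active when robust z-score is at most -1.3, matching the median of the Tlr4 knock-down control, or over 3; control wells and wells with under 50 cells never active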
Meaning of the calls: active = Tnf reporter clearly lowered or raised; inactive = no clear change in Tnf reporter
The whole screen tested about 17,000 reagents; this is a part drawn at random. About 1,110 of all reagents (6.6%) count as active. 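Active means lowered or raised reporter signal; replicate intensities are raw and not normalised per plate.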 Entries without a mark were called inactive. Reagent sequences are not shown.

| target | PubChem SID | Tnf reporter robust z-score | fewer than 50 cells in well | Tnf reporter intensity, replicate 1 | Tnf reporter intensity, replicate 2 |
| --- | --- | --- | --- | --- | --- |
| Id3 | SID315467367 | -0.08 | enough cells in well | 226 | 188 |
| Vmn1r19 | SID315477289 | 2.32 | enough cells in well | 165 | 197 |
| Polg2 | SID315470838 | -0.78 | enough cells in well | 101 | 177 |
| Akap4 | SID315465372 | 0.45 | enough cells in well | 219 | 188 |
| Or5b123 | SID315480286 | 0.5 | enough cells in well | 218 | 136 |
| Cxcr3 | SID315466010 | -0.42 | enough cells in well | 139 | 334 |
| Or13a22 | SID315480575 | 0.04 | enough cells in well | 123 | 89.7 |
| Clec11a | SID315469110 | -0.04 | enough cells in well | 295 | 195 |
| Hmgb1 | SID315467220 | 0.55 | enough cells in well | 239 | 230 |
| Fut8 | SID315471093 | 0.12 | enough cells in well | 282 | 232 |
| Lypd6 | SID315481288 | 0.85 | enough cells in well | 260 | 135 |
| Zfp764l1 | SID315476291 | – | fewer than 50 cells per well; well left out of calls | 54.3 | 43.2 |
| Afap1l2 | SID315478484 | 0.17 | enough cells in well | 176 | 179 |
| Ybx2 | SID315471073 | 1.42 | enough cells in well | 231 | 132 |
| Add1 | SID315465305 | 1.42 | enough cells in well | 245 | 255 |
| Abcd1 | SID315465382 | -0.33 | enough cells in well | 139 | 154 |
| Caln1 | SID315477157 | -0.03 | enough cells in well | 158 | 181 |
| Prox1 | SID315468717 | -0.89 | enough cells in well | 184 | 123 |
| Rcn3 | SID315470959 | 2.21 | enough cells in well | 250 | 196 |
| Or13a28 | SID315468325 | 0.88 | enough cells in well | 146 | 153 |
| Unc45b | SID315478065 | -1.2 | enough cells in well | 90.7 | 115 |
| Or2a5 | SID315479964 | -0.89 | enough cells in well | 169 | 127 |
| Tasp1 | SID315475208 | – | fewer than 50 cells per well; well left out of calls | 154 | 71.5 |
| Hmg20b | SID315467223 | -0.95 | enough cells in well | 186 | 99 |
| Nomo1 | SID315477690 | 1.2 | enough cells in well | 325 | 320 |
| Grik1 | SID315467029 | -0.7 | enough cells in well | 179 | 196 |
| Or2b4 | SID315480667 | -0.61 | enough cells in well | 157 | 86.2 |
| Slbp | SID315469268 | -0.27 | enough cells in well | 232 | 213 |
| Dlk1 | SID315466333 | -0.35 | enough cells in well | 227 | 159 |
| Pus7 | SID315475602 | 0.02 | enough cells in well | 125 | 145 |
| Zic3 | SID315470150 | -0.87 | enough cells in well | 216 | 135 |
| Il2rg | SID315467453 | -0.01 | enough cells in well | 230 | 156 |
| Stat5b | SID315469488 | 0.81 | enough cells in well | 386 | 248 |
| Mlycd | SID315471631 | 1.79 | enough cells in well | 301 | 204 |
| H2-DMa | SID315467115 | 0.54 | enough cells in well | 249 | 251 |
| Kifc3 | SID315467633 | 0.51 | enough cells in well | 257 | 193 |
| Dok1 | SID315466367 | -0.84 | enough cells in well | 107 | 110 |
| Or5m9b | SID315479947 | 2.65 | enough cells in well | 278 | 348 |
| Il17rb | SID315470874 | -0.86 | enough cells in well | 213 | 75.8 |
| Camta2 | SID315478052 | -0.47 | enough cells in well | 101 | 165 |

Individual results from above.
Afap1l2 [SID315478484], Tnf reporter intensity, replicate 2 = 179
Hmg20b [SID315467223], Tnf reporter intensity, replicate 1 = 186
Under “fewer than 50 cells in well”, Fut8 [SID315471093] is entered as enough cells in well
